Data: PubChem BioAssay AID493014 (National Center for Advancing Translational Sciences (NCATS), 2011)
Hit rate of the full screen: of about 340,000 compounds, about 170 (0.05%) were called active. Inconclusive results, whose numbers are uncertain, are shown with a selection of clear calls. Calls follow the shape of the dose curve; as a rule, active = well fitted inhibition curve with a large enough effect in the signal ratio, with a control signal flat (not every such curve was filed as active); inconclusive = small, poorly fitted or top-dose-only effect, or effect the other way, or a change in a side signal; inactive = flat fitted curve, though single readings scatter; the % refers to the signal ratio. Potencies beside an inconclusive call are fits to weak or partial responses and may not hold up.

Test: qHTS Assay to Find Inhibitors of Chronic Active B-Cell Receptor Signaling;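 as to activity change, negative = inhibition: plate controls were basal doxycycline-induced cells for no effect and cells given 10 µM MG132 for full effect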
Details: ABC-DLBCL IkBa-CBG/CBR reporter, luminescence ratio (green luciferase fused to IkBa over red control in TMD8 lymphoma cells), 4 h; activity change, negative = inhibition: at 46.1 µM (top of the series)
Summary of the method: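 Cell line TMD8 (human ABC DLBCL), stably expressing tet-inducible CBG68-IkBa fusion and CBR; IMDM/0.5% FBS; cpd up to 46 uM; dox induction, 4 h, 37C/5% CO2; dual luminescence; green/red ratio; MG132 control.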
Potency is read from the fitted curve at half-maximal effect.

SMILES | activity change, negative = inhibition | Potency
COc1cc(C(=O)NCc2ccc(-n3cccc3)cc2)cc(OC)c1OC | inconclusive: 2.81% | –
CC(Cc1ccccn1)NC(=O)c1ccc(OC2CCN(CCc3ccccc3)CC2)cc1 (stereo not given) | inactive: 2.61% | –
COc1ccc2nc(C)c(C(=O)NN)cc2c1 | inconclusive: 0.355% | –
Cc1ccc(C(=O)Nn2cnc3scc(-c4cccs4)c3c2=O)c(O)c1 | inactive: 14.1% | –
CC1CCCN(CCCNC(=O)c2ccc3c(c2)N(Cc2ccccc2F)C(=O)c2ccccc2S3(=O)=O)C1 (stereo not given) | inconclusive: -9.74% | –
Cc1ccc(OCCC(=O)Nc2ccc(F)c(F)c2)cc1 | inconclusive: 0.0299% | –
O=C(/C=C/c1ccccc1)c1ccc2c(c1)OCO2 | – | inconclusive: 35.5 µM [falling, single point]
COc1ccc(CCNC(=O)C(=O)NCC2OCCN2S(=O)(=O)c2ccc(OC)c(C)c2)cc1 (stereo not given) | inconclusive: 4.01% | –
Cc1c(Cl)cccc1NC(=O)CCN1CCC(C(N)=O)CC1 | inactive: -1.41% | –
Oc1c(CN2CCCCC2)cc(Br)c2cccnc12 | – | inconclusive: 20 µM [falling, partial curve, poor fit]
Nc1n[nH]c(N)c1N=Nc1ccc(F)cc1 | – | inconclusive: 31.6 µM [falling, single point]
O=C(CCS(=O)(=O)c1ccc(F)cc1)N1CCN(c2ccccc2)CC1 | inconclusive: -1.1% | –
COc1cc(/C=N/N=C/c2cc(OC)c(O)c(OC)c2)cc(OC)c1O | inconclusive: -7.42% | –
CCN(CC)S(=O)(=O)c1ccc(N2CCOCC2)c(NC(=O)C2CCCO2)c1 (stereo not given) | inconclusive: 5.99% | –
CCCNC(=O)c1c(N)n(-c2ccc3c(c2)OCO3)c2nc3ccccc3nc12 | inconclusive: 7.35% | –
O=C(Cc1ccccc1)NCCC1=CCCCC1 | inactive: 0.449% | –
CC(Sc1nc2ccccc2c(=O)n1C)C(=O)Nc1ccc2c(c1)OCCO2 (stereo not given) | inconclusive: 6.74% | –
Cc1ccc(S(=O)(=O)NNC(=O)CCC(=O)Nc2ccccc2Cl)cc1 | inactive: 3.46% | –
O=S(=O)(c1ccc(SCCOc2ccc(Br)cc2)nc1)N1CCCC1 | inactive: -2.01% | –
COc1ccc(Nc2oc(-c3ccc(Cl)cc3)nc2C#N)cc1 | inconclusive: -21.8% | –

Ordered by count of non-hydrogen atoms (descending): part of the list above.
SMILES | activity change, negative = inhibition | Potency
CC(Sc1nc2ccccc2c(=O)n1C)C(=O)Nc1ccc2c(c1)OCCO2 (stereo not given) | inconclusive: 6.74% | –
Cc1c(Cl)cccc1NC(=O)CCN1CCC(C(N)=O)CC1 | inactive: -1.41% | –
O=C(/C=C/c1ccccc1)c1ccc2c(c1)OCO2 | – | inconclusive: 35.5 µM [falling, single point]

(continued)

SMILES | activity change, negative = inhibition | Potency
O=c1oc(-c2cccs2)nc2scc(-c3cccs3)c12 | – | inconclusive: 3.26 µM [falling, full curve]
CC(C)(C)c1nc2c(C#N)c(-c3ccc(Cl)cc3)ccn2n1 | inconclusive: 22.5% | –
CCC(=O)Nc1ccccc1C(=O)OCC(=O)c1ccccc1 | – | inconclusive: 35.5 µM [falling, single point]
Cc1ccc(NC(=O)CSc2nnc(Cc3csc(C)n3)o2)cc1 | inconclusive: -3.08% | –
S=C(NNc1cccc(Cl)c1)NC1CCCCC1 | – | inconclusive: 5.01 µM [falling, partial curve, poor fit]
CCOC(=O)c1cc(-c2ccccc2)sc1NC(=O)C(C)C | inactive: 4.08% | –
CC1=CC(c2ccc(Cl)cc2)n2nc(NC(=O)c3ccccc3)nc2N1 (stereo not given) | inactive: -2.4% | –
COc1ccc(S(=O)(=O)N(C)c2ccc(C(=O)NCc3ccccn3)cc2)cc1 | – | inconclusive: 35.5 µM [falling, partial curve, poor fit]
CC(C)c1cc(NCC2CCCO2)n2c(nc3ccccc32)c1C#N (stereo not given) | – | inconclusive: 3.66 µM [rising, full curve]
COc1ccc(NC(=O)c2nc3ccccc3s2)cc1 | inconclusive: -15.4% | –
Cn1nc(-c2ccc(NCCO)c([N+](=O)[O-])c2)c2ccccc2c1=O | inconclusive: -6.42% | –
Brc1ccc(-c2noc(CCc3ccccc3)n2)o1 | inconclusive: 12.2% | –
COc1ccc(/C=N/NC(=O)c2cccc(OC(F)(F)C(F)F)c2)cc1O | inconclusive: -8.41% | –
O=[N+]([O-])c1ccccc1S(=O)(=O)Nc1ncccn1 | inactive: -0.724% | –
CC(=O)Nc1cccc2c1C(=O)N(c1ccccc1C)C2=O | inactive: -15.3% | –
FC(F)Oc1ccc(-c2c[n+]3c(n2-c2ccccc2)CCCCC3)cc1 | inactive: -15.3% | –
CCOC(=O)C(NC(=O)CCl)(Nc1sc(C)c(CC)c1C#N)C(F)(F)F (stereo not given) | – | inconclusive: 23.1 µM [falling, partial curve, poor fit]
O=C1c2ccccc2C(=O)N1CCC#Cc1ccc2cc(C3(O)CCCCC3)oc(=O)c2c1 | inconclusive: 1.78% | –
Cc1ccc(O)c(NC(=S)NC(=O)Cc2ccc(Cl)cc2)c1 | – | inconclusive: 6.31 µM [falling, partial curve, poor fit]
COc1ccc(CN(Cc2cc3cc4c(cc3[nH]c2=O)OCO4)C(=O)NC2CCCCC2)cc1 | inconclusive: -2.86% | –
